No constants are given. Whether binding was seen depends on the method and setting. In cells and extracts the contact can be indirect. Some results given as binding are weak or reduced against the parent protein; the word gives no strength. For some assays here: Where a sequence is shown, tags or fusion partners need not be part of it.
Columns and labels:
[1] = molecular target: T1, FLAG-tagged MST1 (UniProt Q13043); assay: co-IP; IMR90 cells co-transfected with HA-FRMD6 and FLAG-MST1; RIPA lysates immunoprecipitated with anti-HA or anti-FLAG antibody-coated agarose beads, immunoblotting
T1 sequence: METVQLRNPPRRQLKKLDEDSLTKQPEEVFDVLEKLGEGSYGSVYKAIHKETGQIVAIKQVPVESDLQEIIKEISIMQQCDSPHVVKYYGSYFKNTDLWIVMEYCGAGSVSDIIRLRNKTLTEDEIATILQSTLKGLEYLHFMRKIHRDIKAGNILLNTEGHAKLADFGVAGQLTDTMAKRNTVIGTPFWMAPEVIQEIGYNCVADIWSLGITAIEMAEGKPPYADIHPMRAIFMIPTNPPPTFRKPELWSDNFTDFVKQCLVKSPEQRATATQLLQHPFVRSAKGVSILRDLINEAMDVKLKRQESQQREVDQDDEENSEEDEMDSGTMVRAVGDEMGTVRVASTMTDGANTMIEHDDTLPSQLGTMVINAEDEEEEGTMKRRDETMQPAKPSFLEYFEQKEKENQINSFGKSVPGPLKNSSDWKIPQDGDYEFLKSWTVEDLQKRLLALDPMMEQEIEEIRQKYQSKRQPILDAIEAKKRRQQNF

The chains behind the UniProt entries cited, without tags or fusion partners.
UniProt Q96NE9: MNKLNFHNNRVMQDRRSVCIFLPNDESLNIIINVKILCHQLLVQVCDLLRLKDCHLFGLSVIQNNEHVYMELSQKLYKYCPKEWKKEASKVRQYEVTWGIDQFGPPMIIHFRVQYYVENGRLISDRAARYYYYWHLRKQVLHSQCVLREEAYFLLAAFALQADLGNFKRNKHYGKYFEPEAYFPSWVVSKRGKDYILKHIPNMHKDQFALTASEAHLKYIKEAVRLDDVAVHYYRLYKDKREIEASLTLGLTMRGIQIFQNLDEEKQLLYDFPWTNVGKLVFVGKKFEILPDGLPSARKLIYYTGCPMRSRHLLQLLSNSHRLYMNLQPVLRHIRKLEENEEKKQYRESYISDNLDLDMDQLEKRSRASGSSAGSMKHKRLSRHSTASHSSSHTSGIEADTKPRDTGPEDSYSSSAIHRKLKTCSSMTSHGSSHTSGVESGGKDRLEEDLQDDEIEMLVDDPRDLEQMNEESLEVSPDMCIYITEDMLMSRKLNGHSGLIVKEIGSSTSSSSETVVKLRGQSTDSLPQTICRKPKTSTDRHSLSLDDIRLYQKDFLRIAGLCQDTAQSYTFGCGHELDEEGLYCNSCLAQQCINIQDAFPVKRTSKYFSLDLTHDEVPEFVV
UniProt P35240: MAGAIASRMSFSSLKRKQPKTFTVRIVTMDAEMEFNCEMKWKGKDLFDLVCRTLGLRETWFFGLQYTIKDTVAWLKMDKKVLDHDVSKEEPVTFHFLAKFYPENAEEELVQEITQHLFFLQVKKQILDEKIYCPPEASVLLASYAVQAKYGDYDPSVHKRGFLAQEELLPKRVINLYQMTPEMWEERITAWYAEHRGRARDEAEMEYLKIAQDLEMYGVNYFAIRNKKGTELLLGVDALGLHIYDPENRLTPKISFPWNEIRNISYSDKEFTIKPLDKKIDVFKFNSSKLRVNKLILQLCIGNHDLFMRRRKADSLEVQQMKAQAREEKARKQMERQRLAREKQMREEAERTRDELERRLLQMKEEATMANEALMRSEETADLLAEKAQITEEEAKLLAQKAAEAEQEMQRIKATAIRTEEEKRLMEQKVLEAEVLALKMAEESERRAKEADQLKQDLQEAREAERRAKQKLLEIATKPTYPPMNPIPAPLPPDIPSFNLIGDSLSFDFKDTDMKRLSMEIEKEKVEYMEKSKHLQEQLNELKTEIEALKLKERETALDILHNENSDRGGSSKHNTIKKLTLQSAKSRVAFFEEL

[2] = molecular target: HA-tagged FRMD6 (FERM domain-containing protein 6) (UniProt Q96NE9); assay: co-IP; IMR90 cells transfected with HA-FRMD6 alone, with or without DOX for 48 h; RIPA lysates immunoprecipitated with anti-HA beads, immunoblotting for endogenous proteins

| binding [1] | binding [2] | Substance |
| --- | --- | --- |
| binds |  | HA-tagged FRMD6 (FERM domain-containing protein 6) (from UniProt Q96NE9 1-622) |
|  | no binding | NF2 (Merlin, neurofibromin 2) (from UniProt P35240 1-595) |

Source: paper PMC11519602
